Experimental data published in patent publication US20030129703A1 (Regeneron, published 2003).
These are yes or no findings as the source states them, for the method shown. Some results given as binding are weak or reduced against the parent protein; the word gives no strength.

Tests used:
[1] = molecular target: T1, human Bone Morphogenetic Protein 4 (human) (UniProt P12644); experiment: binding to BMP4 compared with hNG-Fc; assay not detailed
T1 sequence (looked up): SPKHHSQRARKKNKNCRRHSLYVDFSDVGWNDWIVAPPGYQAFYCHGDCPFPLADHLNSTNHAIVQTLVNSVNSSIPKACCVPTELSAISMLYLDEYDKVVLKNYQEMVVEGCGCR

[2] = molecular target: T1, human Bone Morphogenetic Protein 4 (human); experiment: binding to BMP4 compared with hNG-Fc

B1: citraconyl-hNG (ligand)
chain: QHYLHIRPAPSDNLPLVDLIEHPDPIFDPKEKDLNETLLRSLLGGHYDPGFMATSPPEDRPGGGGGAAGGAEDLAELDQLLRQRPSGAMPSEIKGLEFSEGLAQGKKQRLSKKLRRKLQMWLWSQTFCPVLYAWNDLGSRFWPRYVKVGSCFSKRSCSVPEGMVCKPSKSVHLTVLRWRCQRRGGQRCGWIPIQYPIISECKCSC
modifications: citraconyl groups (chemically modified; residues not stated)
With B1 the binding [1] was “binds”.

B2: hNGΔ138-144Fc (Fc fusion, not shown: a dimerising Fc or GST)
chain: QHYLHIRPAPSDNLPLVDLIEHPDPIFDPKEKDLNETLLRSLLGGHYDPGFMATSPPEDRPGGGGGAAGGAEDLAELDQLLRQRPSGAMPSEIKGLEFSEGLAQGKKQRLLQMWLWSQTFCPVLYAWNDLGSRFWPRYVKVGSCFSKRSCSVPEGMVCKPSKSVHLTVLRWRCQRRGGQRCGWIPIQYPIISECKCSC
B2 was tested, and the binding [2] was “binds” and the binding [1] was “binds”.
